For some assays here: No signal at the amounts used counts as a negative. The exact form of at least one protein or probe is not confirmed. The comparison behind a weaker result is the experiment's own reference, which may not be listed here. For some assays here: At least one verdict was read from the data and is not stated in words by the source.
Legend:
[1] = molecular target: bovine serum albumin (BSA) (UniProt P02769); assay: AF4-UV (asymmetrical flow field-flow fractionation); details: PBS-Mg2+ buffer (also mobile phase), 10 uL of 5 uM aptamer + 10 uL of 5, 10, 25 or 50 uM protein (1:1 to 1:10), commercial protein, single-stranded DNA
[2] = molecular target: lysozyme (UniProt P00698); assay: as above; details: PBS-Mg2+ buffer (also mobile phase), 10 uL of 5 uM aptamer + 10 uL of 5, 10, 25 or 50 uM protein (1:1 to 1:10), commercial protein, single-stranded DNA
[3] = general sentence: much lower affinity than for lysozyme, below A40

GGGAATGGATCCACATCTACGAATTCAAGTGGATTAACTGTGTAGACCGATAGACGTTCACTGCAGACTTGACGAAGCTT [C80R]
binding result [1, 3]: binds more weakly | binding result ([2]; interaction at high molar ratios, ascribed to non-specific electrostatics): binds more weakly

ATCAGGGCTAAAGAGTGCAGAGTTACTTAG [C30]
binding result [1, 3]: binds more weakly

AGCAGCACAGAGGTCAGATGGCAGCTAAGCAGGCGGCTCACAAAACCATTCGCATGCGGCCCTATGCGTGCTACCGTGAA [A80]
binding result ([1]; not interacting at the concentrations explored (5 uM aptamer, up to 1:10)): no binding

AGCAGCACAGAGGTCAGATGACTATGTCGGCCGCAATGCCCAGAGGCCACATACAAGCGGCCTATGCGTGCTACCGTGAA [A80R]
binding result [1, 3]: binds more weakly | binding signal ([2]; 5 uM aptamer, 50 uM lysozyme as stated, complex only at high molar excess): 20 % bound

GGGAATGGATCCACATCTACGAATTCATCAGGGCTAAAGAGTGCAGAGTTACTTAGTTCACTGCAGACTTGACGAAGCTT [C80]
binding result [1, 3]: binds more weakly

GCAGCTAAGCAGGCGGCTCACAAAACCATTCGCATGCGGC [A40]
binding signal ([1]; maximum bound fraction, most interfered aptamer): 35 % bound

— PMC9242963
